Data: PubChem BioAssay AID248 (DTP/NCI, 2004)
The list is a part of this screen's results and no random one: it gathers tests that were run many times, whatever their T/C, doses with no T/C, and many T/C values between a quarter and a half above the control. Other doses and runs of a compound stand elsewhere. T/C: endpoint of the treated group in % of that of the vehicle group. Some doses have a count of surviving animals in place of a T/C: the source holds a T/C of zero for them, seemingly a mark for toxic or unscored doses. Some survivor counts are full or nearly so, which does not show that the dose was tolerated: the source hardly ever lists a survival T/C far under the control, and the zero likely stands for such cases as well. Counts of survivors are from the toxicity check (mostly the fifth day) where no day follows; animals may have died later. Schedule codes are those of the source, taken here to give the interval after Q, in days (D) or hours (H), and the number of doses after X. Some entries were tested several times; their values stand side by side, smallest first. Some schedule codes hold Z or #, which are not explained here. For survival time, this PubChem deposit counts one and a half times the control or more as active, and values a quarter to a half above the control carry no call in these data; other NCI protocols may use other cut-offs.

System: L1210 leukemia ip in BDF1 mice, survival T/C
Assay: NCI In Vivo Anticancer Drug Screen. Data for tumor model L1210 Leukemia (intraperitoneal) in B6D2F1 (BDF1) mice
Conditions: T/C endpoint: mean survival time, higher T/C = longer survival
[1] = dose: 100.0 mg/kg/injection, schedule: Q04DX003 (ip), vehicle: saline
[2] = dose: 200.0 mg/kg/injection, schedule: Q04DX003 (ip), vehicle: saline
[3] = dose: 400.0 mg/kg/injection, schedule: Q04DX003 (ip), vehicle: saline
[4] = dose: 400.0 mg/kg/injection, schedule: Q04DX003 (ip), vehicle: saline with Tween-80
[5] = dose: 200.0 mg/kg/injection, schedule: Q01DX009 (ip), vehicle: saline with Tween-80
[6] = dose: 50.0 mg/kg/injection, schedule: Q01DX009 (ip), vehicle: saline with Tween-80
[7] = dose: 50.0 mg/kg/injection, schedule: Q04DX003 (ip), vehicle: saline with Tween-80
[8] = dose: 100.0 mg/kg/injection, schedule: Q04DX003 (ip), vehicle: saline with Tween-80
[9] = dose: 200.0 mg/kg/injection, schedule: Q04DX003 (ip), vehicle: saline with Tween-80
[10] = dose: 200.0 mg/kg/injection, schedule: Q01DX009 (ip), vehicle: Klucel (hydroxypropylcellulose) (HPC)
[11] = dose: 200.0 mg/kg/injection, schedule: Q01DX009 (ip), vehicle: other
[12] = dose: 400.0 mg/kg/injection, schedule: Q01DX009 (ip), vehicle: other

Structure (SMILES): CCN(CC)CCOc1ccccc1C(=O)CCc1ccccc1
- survivor count [1]: 2 of 6
- survivor count [2]: 0 of 6
- survivor count [3]: 0 of 6

Structure (SMILES): O=C(CCCN1CC=C(N2CCc3ccccc32)CC1)c1ccc(F)cc1
- survivor count [4]: 6 of 6

Structure (SMILES): Nc1cc(OCc2ccccc2)cc(OCc2ccccc2)c1
- survivor count (dose: 200.0 mg/kg/injection, schedule: Q01DX009 (ip), vehicle: water): 0 of 6
- survivor count (dose: 400.0 mg/kg/injection, schedule: Q01DX009 (ip), vehicle: water): 0 of 6

Structure (SMILES): BrC1CCC2C(CCC(Br)C23OCCO3)C12OCCO2 (stereo not given)
- survivor count [2]: 6 of 6

Structure (SMILES): Nc1ccn(CC(=O)c2cccs2)c(=O)n1
- survivor count [5]: 0 of 6
- survivor count (dose: 400.0 mg/kg/injection, schedule: Q01DX009 (ip), vehicle: saline with Tween-80): 1 of 6
- survivor count [4]: 2 of 6

Structure (SMILES): COc1cc(/C=N\NC(=O)CNC(=O)Nc2cccc(Cl)c2)ccc1O
- survivor count [6]: 3 of 3

Structure (SMILES): C(=C\[P+](Cc1ccccc1)(c1ccccc1)c1ccccc1)/c1ccccc1
- survivor count [7]: 4 of 6
- survivor count [8]: 0 of 6
- survivor count [9]: 0 of 6
- survivor count [4]: 0 of 6

Structure (SMILES): ICc1cccc(CI)c1
- survivor count (dose: 25.0 mg/kg/injection, schedule: Q01DX009 (ip), vehicle: carboxymethylcellulose (CMC)): 3 of 6
- survivor count (dose: 50.0 mg/kg/injection, schedule: Q01DX001 (ip), vehicle: other): 0 of 6
- survivor count (dose: 100.0 mg/kg/injection, schedule: Q01DX001 (ip), vehicle: other): 2 of 6
- survivor count (dose: 200.0 mg/kg/injection, schedule: Q01DX001 (ip), vehicle: other): 1 of 6
- survivor count (dose: 400.0 mg/kg/injection, schedule: Q01DX001 (ip), vehicle: other): 2 of 6

Structure (SMILES): CCCCOc1ccc(/C=N/NC(=O)Nc2ccccc2)cc1
- survivor count [10]: 6 of 6

Structure (SMILES): C=CC[n+]1ccccc1C(c1ccccc1)c1ccccc1
- survivor count [7]: 2 of 6
- survivor count [8]: 0 of 6
- survivor count [9]: 0 of 6
- survivor count [4]: 0 of 6

Structure (SMILES): COC(=O)c1n[nH]c(C(C)C)c1N=NN(C)C
- T/C (dose: 100.0 mg/kg/injection, schedule: Q01DX009 (ip), vehicle: saline with Tween-80): 137 % of control
- survivor count [5]: 6 of 6
- T/C [9]: 129 % of control

Structure (SMILES): CN(C)C(=O)OC1CCCC1[N+](C)(C)CCCCCCCC[N+](C)(C)C1CCCC1OC(=O)N(C)C (stereo not given)
- survivor count (dose: 2.5 mg/kg/injection, schedule: Q04DX003 (ip), vehicle: saline): 0 of 6
- survivor count (dose: 5.0 mg/kg/injection, schedule: Q04DX003 (ip), vehicle: saline): 0 of 6
- survivor count (dose: 10.0 mg/kg/injection, schedule: Q04DX003 (ip), vehicle: saline): 0 of 6
- survivor count (dose: 12.5 mg/kg/injection, schedule: Q01DX009 (ip), vehicle: saline): 0 of 6
- survivor count (dose: 20.0 mg/kg/injection, schedule: Q04DX003 (ip), vehicle: saline): 0 of 6
- survivor count (dose: 25.0 mg/kg/injection, schedule: Q01DX009 (ip), vehicle: saline): 0 of 6
- survivor count (dose: 40.0 mg/kg/injection, schedule: Q04DX003 (ip), vehicle: saline): 0 of 6
- survivor count (dose: 50.0 mg/kg/injection, schedule: Q01DX009 (ip), vehicle: saline): 0 of 6
- survivor count [1]: 0 of 6
- survivor count [2]: 0 of 6
- survivor count [3]: 0 of 6

Structure (SMILES): CCN(C(=O)C(F)(F)F)C(C)(C)C(SSSC(c1ccc(Cl)cc1)C(C)(C)N(CC)C(=O)C(F)(F)F)c1ccc(Cl)cc1 (stereo not given)
- survivor count [11]: 0 of 6
- survivor count [12]: 0 of 6

Structure (SMILES): CCOc1c(Br)cc(Br)cc1C=C(C#N)C#N
- survivor count (dose: 100.0 mg/kg/injection, schedule: Q01DX009 (ip), vehicle: other): 0 of 6 and 5 of 6
- survivor count [11]: 0 of 6
- survivor count [12]: 4 of 6
- survivor count (dose: 400.0 mg/kg/injection, schedule: Q04DX003 (ip), vehicle: other): 1 of 6

Structure (SMILES): O=C1C=CC(=O)N1CCc1ccccc1
- survivor count (dose: 25.0 mg/kg/injection, schedule: Q01DX009 (ip), vehicle: Klucel (hydroxypropylcellulose) (HPC)): 6 of 6
- survivor count (dose: 40.0 mg/kg/injection, schedule: Q04DX003 (ip), vehicle: saline with Tween-80): 0 of 6
- survivor count (dose: 50.0 mg/kg/injection, schedule: Q01DX009 (ip), vehicle: Klucel (hydroxypropylcellulose) (HPC)): 0 of 6
- survivor count (dose: 80.0 mg/kg/injection, schedule: Q04DX003 (ip), vehicle: saline with Tween-80): 0 of 6
- survivor count (dose: 100.0 mg/kg/injection, schedule: Q01DX009 (ip), vehicle: Klucel (hydroxypropylcellulose) (HPC)): 1 of 6
- survivor count [10]: 0 of 6
- survivor count (dose: 400.0 mg/kg/injection, schedule: Q01DX009 (ip), vehicle: Klucel (hydroxypropylcellulose) (HPC)): 0 of 6

Structure (SMILES): CC(=O)[O][Hg][c]1sc2ccccc2c1C
- survivor count (dose: 13.0 mg/kg/injection, schedule: Q04DX003 (ip), vehicle: acetone): 3 of 6
- survivor count (dose: 19.0 mg/kg/injection, schedule: Q01DX009 (ip), vehicle: saline with Tween-80): 5 of 6
- survivor count (dose: 19.0 mg/kg/injection, schedule: Q04DX003 (ip), vehicle: acetone): 0 of 6
- survivor count (dose: 28.0 mg/kg/injection, schedule: Q01DX009 (ip), vehicle: saline with Tween-80): 2 of 6

Structure (SMILES): N#CCCC#N (tested in a mixture with another compound)
- survivor count [4]: 2 of 6

Structure (SMILES): CN(C)N=C1CCCC1
- survivor count (dose: 200.0 mg/kg/injection, schedule: Q01DX009 (ip), vehicle: saline): 3 of 6

Structure (SMILES): CC(=O)N(C(C)=O)c1ccc(C)cc1
- survivor count (dose: 400.0 mg/kg/injection, schedule: Q01DX009 (ip), vehicle: saline): 1 of 6

Structure (SMILES): C[N+](C)(C)Cc1c(C(O)(c2ccccc2)c2ccccc2)ccc2ccccc12
- survivor count (dose: 200.0 mg/kg/injection, schedule: Q01DX001 (ip), vehicle: carboxymethylcellulose (CMC)): 2 of 4
- survivor count (dose: 400.0 mg/kg/injection, schedule: Q01DX001 (ip), vehicle: carboxymethylcellulose (CMC)): 1 of 4

Structure (SMILES): COC(=O)C1C2CC(O)C(C2)C1C(=O)OC (stereo not given)
- survivor count [8]: 6 of 6
- survivor count [9]: 0 of 6
- survivor count [4]: 0 of 6

Structure (SMILES): CN(C)C1C2C(CS2(=O)=O)C1(C)C (stereo not given)
- survivor count (dose: 300.0 mg/kg/injection, schedule: Q01DX001 (ip), vehicle: carboxymethylcellulose (CMC)): 1 of 6

Structure (SMILES): O=C(Nc1ccc(C2=NCCN2)cc1)Nc1cc(C(=O)Nc2ccc(C3=NCCN3)cc2)ccc1C(=O)Nc1ccc(C2=NCCN2)cc1
- survivor count (dose: 30.0 mg/kg/injection, schedule: Q01DX Z (ip), vehicle: saline): 0 of 6
- survivor count (dose: 60.0 mg/kg/injection, schedule: Q01DX Z (ip), vehicle: saline): 0 of 6
- survivor count (dose: 120.0 mg/kg/injection, schedule: Q01DX Z (ip), vehicle: saline): 0 of 6
- survivor count (dose: 150.0 mg/kg/injection, schedule: Q01DX Z (oral), vehicle: saline): 3 of 6

Structure (SMILES): CCC(=O)C1CCCCN1 (stereo not given)
- survivor count (dose: 100.0 mg/kg/injection, schedule: Q04DX002 (ip), vehicle: saline): 0 of 3
- survivor count (dose: 200.0 mg/kg/injection, schedule: Q04DX002 (ip), vehicle: saline): 0 of 3
- survivor count (dose: 400.0 mg/kg/injection, schedule: Q04DX002 (ip), vehicle: saline): 0 of 3

Structure (SMILES): CNC(=S)NC1CC(OC2CC(O)(C(C)=O)Cc3c(O)c4c(c(O)c32)C(=O)c2c(OC)cccc2C4=O)OC(C)C1O (stereo not given)
- T/C (dose: 12.5 mg/kg/injection, schedule: Q01DX009 (ip), vehicle: saline with Tween-80): 125 % of control
- T/C (dose: 25.0 mg/kg/injection, schedule: Q01DX009 (ip), vehicle: saline with Tween-80): 128 % of control
- T/C [6]: 126 % of control
- T/C [8]: 129 % of control

Structure (SMILES): COc1cc(N)c([N+](=O)[O-])c(OC)c1
- survivor count [9]: 3 of 6
- survivor count [4]: 0 of 6

Structure (SMILES): CCC(CC)N=C(N)N
- survivor count [2]: 6 of 6
- survivor count [3]: 1 of 6
